Measured values published in patent US11213590B2, “SSTR-targeted conjugates and particles and formulations thereof” (priority 2016, dated 2022).
At least one peptide structure holds a part that was inferred or is arguable (an end, a ring closure or a residue).

Chains of the proteins cited; added tags and fusions are not shown. Lines headed by an entry give the natural chain unless they say otherwise; changes in a name come on top.
UniProt P32745: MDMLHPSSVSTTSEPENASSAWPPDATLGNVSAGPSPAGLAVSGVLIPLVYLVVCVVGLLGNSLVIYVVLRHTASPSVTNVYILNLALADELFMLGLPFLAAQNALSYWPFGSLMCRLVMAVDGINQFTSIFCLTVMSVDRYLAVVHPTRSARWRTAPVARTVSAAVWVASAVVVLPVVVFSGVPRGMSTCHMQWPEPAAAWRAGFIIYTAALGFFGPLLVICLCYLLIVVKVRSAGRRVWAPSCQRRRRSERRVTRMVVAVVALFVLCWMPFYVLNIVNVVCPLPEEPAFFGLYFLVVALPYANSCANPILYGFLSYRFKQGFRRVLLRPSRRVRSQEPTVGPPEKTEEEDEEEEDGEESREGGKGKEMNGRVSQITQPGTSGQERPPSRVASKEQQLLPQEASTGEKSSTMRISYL

Target: SSTR3 (Homo sapiens, UniProt P32745)
Test: Affinity profile (half-maximal inhibitory concentration), SSTR3
Assay type: binding
Conditions: human somatostatin receptor
Source text: DOTATE, also known as DOTA-TATE or DOTA-octreotate, comprises an amide of the acid DOTA, which connects a radionuclide and (Tyr3)-octreotate, a derivative of octreotide. DOTATOC, also known as edotreotide, SMT487, or (DOTA^0-Phe^1-Tyr^3)octreotide, is also an octreotide derivative which can be bound to radionuclides for diagnosis and treatment.

Structure (SMILES): C[C@@H](O)[C@H](NC(=O)[C@@H]1CSSC[C@H](NC(=O)[C@@H](Cc2ccccc2)NC(=O)CN2CCN3CCN4CCN(CC2)CC(=O)[O][68Ga]([O]C(=O)C3)[O]C(=O)C4)C(=O)N[C@@H](Cc2ccc(O)cc2)C(=O)N[C@H](Cc2c[nH]c3ccccc23)C(=O)N[C@@H](CCCCN)C(=O)N[C@@H]([C@@H](C)O)C(=O)N1)C(=O)O [^68Ga-DOTATATE]
- IC50: > 1000 nM
